# Results as given in patent US10314803B2, “Pharmaceutical composition comprising eicosapentaenoic acid and nicotinic acid and methods of using same” (Amarin Pharmaceuticals Ireland Limited, priority 2008, dated 2019).
# “Also recorded” adds a separate entry of the source. For at least one compound, name, drawing or mass did not settle the structure.
# Tested on: RBC arachidonic acid
# Assay: Red blood cell (RBC) EPA incorporation and arachidonic acid analysis in patients given ethyl-EPA
# Type: in vivo, human
# Conditions: patients, 0.5, 1, 2 or 4 g of 97% pure ethyl-EPA/day for 12 weeks; FIG. 1, average of several clinical studies
# Description: An analysis was performed to assess the impact of red blood cell (RBC) EPA incorporation on arachidonic acid formation. In various studies, patients were randomized, on a double-blind basis, to receive either placebo (liquid paraffin) or 0.5 1, 2 or 4 g of 97% pure ethyl-EPA/day for 12 weeks. All the doses were administered in eight identical appearing capsules. RBCs were analyzed for EPA and AA following in general the methodology of Manku et al. M. S. Manku, D. F. Horrobin, Y. S. Huang and N. Morse, Fatty acids in plasma and red cell membranes in normal humans. Lipids 18 (1983), pp. 906-908).
# Venous blood was collected into a tube pretreated with EDTA and centrifuged at 1500 gav for 15 min. The plasma layer and the buffy coat were separated off and the red cells washed with an equal volume of 0.9% saline. Samples were stored at −80° C. prior to analysis. On thawing, the RBCs were suspended in NaCL/H2SO4aq. (17 mmol/l NaCl, 1 mmol/l Sulfuric acid, 1.8 ml), then shaken with methanol (3 ml). Chloroform (6 ml) and C17:O internal standard were added and the sample was stirred vigorously using a vortex mixer. […] The resulting methyl esters of the fatty acids were separated and measured using a Hewlett-Packard HP5890 Series II Plus Gas chromatograph (cp-wax 52CB 25 m capillary column, Chrompack UK). […]
smiles,measurement,value
"CC/C=C\C/C=C\C/C=C\C/C=C\C/C=C\CCCC(=O)OCC [EPA, eicosapentaenoic acid ethyl ester]",RBC arachidonic acid levels / arachidonic acid formation,decreasing; also recorded: decreased
